Test results: PubChem BioAssay AID1963822 (ICCB-Longwood Screening Facility, Harvard Medical School, 2024)
Some of the results follow.

assay: anaerobic choline-dependent bacterial growth inhibition – minimal medium, absorbance (AID 1963822); conditions: Gram-negative bacterium anaerobic choline minimal medium, measured here: choline growth z-score, timepoint 1, stronger effect = lower value

Row | Compound | z-score
1 | Cc1cc(C)c2c(C)c(C(=O)NCC3(N4CCOCC4)CCCCC3)oc2c1 | -1.76
2 | Cc1c(C(=O)NCC2(N3CCOCC3)CCCCC2)oc2cc(Br)ccc12 | -2.47
3 | Cc1c(C(=O)NCC2(N3CCOCC3)CCCCC2)oc2ccc(Cl)cc12 | 0.41
4 | Cc1c(C(=O)NCC2(N3CCOCC3)CCCCC2)oc2ccc(Br)cc12 | -0.29
5 | Cc1c(C(=O)NCC2(N(C)C)CCCCC2)oc2ccc(Br)cc12 | 0.47
6 | Cc1ccc2c(C)c(C(=O)NCC3(N(C)C)CCCCC3)oc2c1C | -0.35
7 | Cc1c(C(=O)NCC2(N3CCOCC3)CCCCC2)oc2ccc(F)cc12 | -1.63
8 | Cc1c(C(=O)NCC2(N(C)C)CCCCC2)oc2cc(Br)ccc12 | 0.37
9 | Cc1c(C(=O)NCC2(N(C)C)CCCCC2)oc2ccc(Cl)cc12 | 0.7
